Data published in article PMC8767690.
Results are given in words; binding and its absence hold for the method and conditions named. Binding seen in cells or lysates may run through a third protein. Some binding calls cover weakened binding; strength is not graded here.

Protein sequences, listed by entry. Tags and fused reporters are not part of them.
UniProt P0DKX0: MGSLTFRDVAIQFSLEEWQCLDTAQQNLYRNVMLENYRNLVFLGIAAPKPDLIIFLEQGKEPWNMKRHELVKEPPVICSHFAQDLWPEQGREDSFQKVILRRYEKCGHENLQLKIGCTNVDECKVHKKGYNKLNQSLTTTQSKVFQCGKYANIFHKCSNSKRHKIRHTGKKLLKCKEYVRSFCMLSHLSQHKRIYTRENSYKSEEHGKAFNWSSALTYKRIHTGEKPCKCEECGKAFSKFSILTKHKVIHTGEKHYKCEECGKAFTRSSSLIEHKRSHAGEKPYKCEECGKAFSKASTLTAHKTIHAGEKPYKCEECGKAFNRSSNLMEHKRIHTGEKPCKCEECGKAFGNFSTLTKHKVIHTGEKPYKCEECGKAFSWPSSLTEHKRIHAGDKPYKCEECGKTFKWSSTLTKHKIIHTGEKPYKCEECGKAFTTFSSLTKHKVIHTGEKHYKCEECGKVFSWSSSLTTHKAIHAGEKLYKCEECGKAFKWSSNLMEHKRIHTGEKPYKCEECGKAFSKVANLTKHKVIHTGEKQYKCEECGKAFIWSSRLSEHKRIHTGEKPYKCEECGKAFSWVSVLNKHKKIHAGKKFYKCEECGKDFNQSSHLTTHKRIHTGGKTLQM
UniProt Q13263: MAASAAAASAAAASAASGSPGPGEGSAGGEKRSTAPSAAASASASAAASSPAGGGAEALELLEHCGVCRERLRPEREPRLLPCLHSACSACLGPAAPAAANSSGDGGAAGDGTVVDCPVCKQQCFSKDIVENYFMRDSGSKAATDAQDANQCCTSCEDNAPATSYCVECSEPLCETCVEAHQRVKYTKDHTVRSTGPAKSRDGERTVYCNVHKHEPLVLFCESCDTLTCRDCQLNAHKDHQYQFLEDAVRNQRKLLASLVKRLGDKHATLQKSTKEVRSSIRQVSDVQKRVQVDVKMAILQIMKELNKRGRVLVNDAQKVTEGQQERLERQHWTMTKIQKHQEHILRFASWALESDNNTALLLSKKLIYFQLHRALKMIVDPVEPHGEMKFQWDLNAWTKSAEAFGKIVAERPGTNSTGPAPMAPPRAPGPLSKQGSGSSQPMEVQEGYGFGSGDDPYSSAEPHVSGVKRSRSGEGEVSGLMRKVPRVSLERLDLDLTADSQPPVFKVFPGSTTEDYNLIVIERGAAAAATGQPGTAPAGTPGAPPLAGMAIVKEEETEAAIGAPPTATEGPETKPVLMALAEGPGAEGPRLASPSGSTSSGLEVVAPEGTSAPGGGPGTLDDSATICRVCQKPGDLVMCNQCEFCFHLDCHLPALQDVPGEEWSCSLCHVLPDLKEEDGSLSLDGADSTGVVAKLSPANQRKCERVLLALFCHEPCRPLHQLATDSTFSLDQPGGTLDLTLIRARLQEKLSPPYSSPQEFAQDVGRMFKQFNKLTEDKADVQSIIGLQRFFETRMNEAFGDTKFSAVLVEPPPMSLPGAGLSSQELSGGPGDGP

Target: HA-tagged ZNF728 (human) (UniProt P0DKX0)
Experiment: co-IP; HA immunoprecipitation from 10 million K562 cells overexpressing HA-tagged KZFP (pTRE construct, doxycycline-induced), western blot detection of KAP1; performed as described in ref. 30

binding: binds
Substance: KAP1/TRIM28 (from UniProt Q13263 1-835)
